The supplement of paper PMC8288183
The list shows a part of the results. Single values are uncertain, as repeats are few or missing.

Target: T1, NSUN6 (UniProt Q8TEA1)
T1 sequence: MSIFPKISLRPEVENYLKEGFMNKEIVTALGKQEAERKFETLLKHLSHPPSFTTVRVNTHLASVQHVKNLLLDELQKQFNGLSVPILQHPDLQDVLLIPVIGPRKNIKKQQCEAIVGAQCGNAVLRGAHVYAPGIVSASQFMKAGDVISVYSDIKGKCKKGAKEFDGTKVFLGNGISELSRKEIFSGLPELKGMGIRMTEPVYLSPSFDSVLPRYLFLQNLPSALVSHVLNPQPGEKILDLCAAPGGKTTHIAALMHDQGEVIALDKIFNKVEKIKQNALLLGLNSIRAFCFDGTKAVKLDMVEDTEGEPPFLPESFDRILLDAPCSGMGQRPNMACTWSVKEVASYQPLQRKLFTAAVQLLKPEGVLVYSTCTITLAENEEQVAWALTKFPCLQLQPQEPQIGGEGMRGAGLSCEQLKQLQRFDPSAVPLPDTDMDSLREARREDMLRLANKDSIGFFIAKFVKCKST
Test: m5C methylation level at the target C (C/(C+U) bisulfite reads) (fraction); higher = more methylation by NSUN6; extreme values may be limits of the assay
Conditions: HEK293T (wild-type)
Protocol: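 High-throughput mutagenesis reporter. About 140 bp oligo-pool variants of four natural Type II m5C substrates (substrate #1 chr15:91425541; #2 RAB15 3'UTR chr14:65413377; #3 SULT2A1 5'UTR chr19:48389569; #4 NAAA CDS chr4:76857361) were cloned as 3'UTR elements of psiCHECK-2 luciferase and transfected into wild-type HEK293T cells. Total RNA was taken 48 h later and m5C level was measured by targeted bisulfite sequencing as C/(C+U) reads at the m5C site (one library).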

[1] = parent substrate: substrate #1 (main figure)

| Sequence | m5C methylation level at the target C [1] | m5C methylation level at the target C (parent substrate: substrate #2) | m5C methylation level at the target C (parent substrate: substrate #3) | m5C methylation level at the target C (parent substrate: substrate #4) |
| --- | --- | --- | --- | --- |
| CCGACC | 0.000463 | 0 | 0.00114 | 0 |
| GCCUGU | 0.00108 | 0.000864 | 0.00572 | 0.00154 |
| GCAUAA | 0.00113 | 0 | 0.00058 | 0.00447 |
| GCAGGU | 0 | 0.00184 | 0.000755 | 0.0242 |
| CCGUUA | 0.00214 | 0.00362 | 0.000316 | 0.00167 |
| GCAUAU | 0 | 0 | 0.000417 | 0.00306 |
| ACGCAA | 0.00831 | 0.00461 | 0.000536 | 0.00106 |
| ACUAAC | 0 | 0 | 0 | 0.000811 |
| GCACUG | 0.00092 | 0 | 0.00124 | 0 |
| CCGGAC | 0.00114 | 0.001 | 0 | 0 |
| GCGCAC | 0.00116 | 0.00293 | 0.00125 | 0 |
| UCCUCA | 0.00136 | 0.00216 | 0 | 0.00175 |
| UCAGCG | 0.00063 | 0 | 0.00348 | 0.000819 |
| CCCAUU | 0 | 0.00209 | 0.000813 | 0 |
| GCUCCG | 0.00142 | 0.00698 | 0.000396 | 0 |
| UCACGA | 0.00696 | 0 | 0.00249 | 0.00146 |
| GCACGG | 0.00222 | 0.000918 | 0 | 0 |
| CCAGGA | 0.00139 | 0.00235 | 0.00196 | 0.00441 |
| UCGCCG | 0 | 0 | 0.000487 | 0 |
| CCAACU | 0.00468 | 0 | 0.0024 | 0 |
| CCAGGC | 0.000681 | 0.00081 | 0.00042 | 0 |
| GCGACU | 0.00093 | 0.00205 | 0.0067 | 0.000974 |
| ACUAAA | 0 | 0.00192 | 0 | 0 |
| ACGGUG | 0.0129 | 0 | 0.00202 | 0.00111 |

Retrieved one by one from above:

| Sequence | m5C methylation level at the target C [1] | m5C methylation level at the target C (parent substrate: substrate #2) | m5C methylation level at the target C (parent substrate: substrate #3) | m5C methylation level at the target C (parent substrate: substrate #4) |
| --- | --- | --- | --- | --- |
| ACUAAA | 0 | 0.00192 | 0 | 0 |
| GCGACU | 0.00093 | 0.00205 | 0.0067 | 0.000974 |
| UCACGA | 0.00696 | 0 | 0.00249 | 0.00146 |

Next part.

| Sequence | m5C methylation level at the target C [1] | m5C methylation level at the target C (parent substrate: substrate #2) | m5C methylation level at the target C (parent substrate: substrate #3) | m5C methylation level at the target C (parent substrate: substrate #4) |
| --- | --- | --- | --- | --- |
| CCAACA | 0.00681 | 0.00369 | 0 | 0.00121 |
| ACUCGG | 0.00544 | 0 | 0.00275 | 0 |
| ACAUAU | 0.00128 | 0 | 0.000635 | 0 |
| UCGGUC | 0.000495 | 0.00103 | 0.00897 | 0.00228 |
| GCAAAA | 0 | 0.00411 | 0.00127 | 0.00436 |
| ACGAUC | 0.00744 | 0 | 0.00204 | 0.000754 |
| GCCAGA | 0.000627 | 0.00131 | 0.0011 | 0.000692 |
| CCUACU | 0.00113 | 0 | 0.000962 | 0.00084 |
| CCUUGC | 0 | 0.00148 | 0.00246 | 0 |
| UCUAUG | 0 | 0.00395 | 0.00058 | 0 |
| UCCUCC | 0 | 0.00188 | 0 | 0 |
| GCGCAU | 0.000907 | 0 | 0.000509 | 0 |
| CCCGUA | 0.00487 | 0.0014 | 0 | 0 |
| GCAACA | 0 | 0 | 0.00132 | 0 |
| CCCGUC | 0.00169 | 0.0023 | 0.00109 | 0 |
| GCGCGC | 0.0126 | 0.00107 | 0.00146 | 0.000688 |
| CCUUUU | 0.00281 | 0.000943 | 0 | 0.00225 |
| GCUUUC | 0.00138 | 0.00282 | 0.00501 | 0.0015 |
| ACUGGC | 0.000873 | 0 | 0.00231 | 0.000837 |
| ACAUCU | 0.000527 | 0.00107 | 0.00351 | 0 |
| CCAGCU | 0 | 0.00223 | 0 | 0.00275 |
| CCUAAG | 0 | 0 | 0.000684 | 0 |
| ACCUAU | 0.00115 | 0.00188 | 0.00236 | 0 |
| CCAAUU | 0.000821 | 0 | 0.00735 | 0.00145 |

| Sequence | m5C methylation level at the target C [1] | m5C methylation level at the target C (parent substrate: substrate #2) | m5C methylation level at the target C (parent substrate: substrate #3) | m5C methylation level at the target C (parent substrate: substrate #4) |
| --- | --- | --- | --- | --- |
| GCCGUU | 0.00111 | 0.00506 | 0.0013 | 0.00733 |
| CCUGCC | 0.00149 | 0.00173 | 0.00163 | 0.00047 |
| ACGAUG | 0.000456 | 0 | 0.000347 | 0.000735 |
| ACAUAG | 0.00136 | 0 | 0.000311 | 0.000789 |
| ACAGGC | 0.0047 | 0 | 0.00049 | 0 |
| GCCGGU | 0.000697 | 0.00211 | 0.00325 | 0.00363 |
| ACAAUU | 0 | 0.00131 | 0 | 0 |
| GCUAAC | 0.00212 | 0.00107 | 0.00191 | 0.00773 |
| ACGUCU | 0.00138 | 0.00154 | 0.000975 | 0.000808 |
| CCCUCG | 0 | 0.00159 | 0.0007 | 0 |
| ACAACG | 0 | 0.000933 | 0.00157 | 0.00315 |
| ACUGAG | 0.00118 | 0 | 0 | 0 |
| ACAACA | 0.00226 | 0 | 0 | 0.00261 |
| CCAUAU | 0.00856 | 0 | 0.00205 | 0.000529 |
| CCGCAC | 0.00498 | 0.00189 | 0.00213 | 0.000555 |
| GCCGAU | 0.00166 | 0 | 0.0012 | 0.006 |
| CCCUUC | 0.000954 | 0 | 0.00115 | 0 |
| ACGAGA | 0.00297 | 0.00415 | 0.003 | 0.00459 |
| UCUUCU | 0 | 0 | 0 | 0 |
| UCUUCA | 0.0117 | 0 | 0.00318 | 0 |
| CCGUGC | 0.0126 | 0 | 0.000593 | 0.000603 |
| ACAAGC | 0 | 0.0101 | 0 | 0 |
| GCUUCA | 0 | 0 | 0 | 0.0042 |
| CCCCCA | 0.0198 | 0.015 | 0.00213 | 0.00258 |

| Sequence | m5C methylation level at the target C [1] | m5C methylation level at the target C (parent substrate: substrate #2) | m5C methylation level at the target C (parent substrate: substrate #3) | m5C methylation level at the target C (parent substrate: substrate #4) |
| --- | --- | --- | --- | --- |
| GCUGCC | 0 | 0.0017 | 0.000505 | 0.00387 |
| UCACUG | 0 | 0.00904 | 0 | 0.0123 |
| UCAGUG | 0 | 0.00144 | 0 | 0 |
| GCUGGG | 0 | 0.00731 | 0.00128 | 0 |
| UCGGAC | 0.00179 | 0 | 0 | 0 |
| UCAGGA | 0.00141 | 0 | 0.000508 | 0 |
| UCGAGG | 0.00415 | 0.00711 | 0.00216 | 0.00159 |
| UCCUGG | 0 | 0.00066 | 0.00134 | 0 |
| GCACAG | 0.00326 | 0.00419 | 0.00129 | 0.00225 |
| GCUGUU | 0.000558 | 0 | 0.00076 | 0.000635 |
| ACUUAA | 0.00144 | 0.00081 | 0.00134 | 0.00156 |
| UCGGGU | 0.000922 | 0.00308 | 0.000563 | 0 |
| GCCGUC | 0.00382 | 0.00279 | 0 | 0 |
| UCACAA | 0.000723 | 0.0126 | 0.000528 | 0.00324 |
| ACCUUA | 0.00161 | 0 | 0.000886 | 0.00117 |
| GCCCAC | 0 | 0.00306 | 0.00139 | 0.00262 |
| GCUUAG | 0.00198 | 0 | 0.00132 | 0.00196 |
| ACGGAG | 0.000708 | 0.00125 | 0.00105 | 0 |
| UCAUGC | 0.000951 | 0 | 0 | 0.00142 |
| ACGGAC | 0.000607 | 0 | 0 | 0.000934 |
| GCAGUU | 0.00904 | 0.00162 | 0.00222 | 0.000637 |
